Data: publication PMC10588109
No constants are given. Whether binding was seen depends on the method and setting. In cells and extracts the contact can be indirect. Some entries that bind do so weakly or less than the wild type.

Sequences of proteins named here, by UniProt entry; tags and fusion partners are left off.
UniProt Q16665: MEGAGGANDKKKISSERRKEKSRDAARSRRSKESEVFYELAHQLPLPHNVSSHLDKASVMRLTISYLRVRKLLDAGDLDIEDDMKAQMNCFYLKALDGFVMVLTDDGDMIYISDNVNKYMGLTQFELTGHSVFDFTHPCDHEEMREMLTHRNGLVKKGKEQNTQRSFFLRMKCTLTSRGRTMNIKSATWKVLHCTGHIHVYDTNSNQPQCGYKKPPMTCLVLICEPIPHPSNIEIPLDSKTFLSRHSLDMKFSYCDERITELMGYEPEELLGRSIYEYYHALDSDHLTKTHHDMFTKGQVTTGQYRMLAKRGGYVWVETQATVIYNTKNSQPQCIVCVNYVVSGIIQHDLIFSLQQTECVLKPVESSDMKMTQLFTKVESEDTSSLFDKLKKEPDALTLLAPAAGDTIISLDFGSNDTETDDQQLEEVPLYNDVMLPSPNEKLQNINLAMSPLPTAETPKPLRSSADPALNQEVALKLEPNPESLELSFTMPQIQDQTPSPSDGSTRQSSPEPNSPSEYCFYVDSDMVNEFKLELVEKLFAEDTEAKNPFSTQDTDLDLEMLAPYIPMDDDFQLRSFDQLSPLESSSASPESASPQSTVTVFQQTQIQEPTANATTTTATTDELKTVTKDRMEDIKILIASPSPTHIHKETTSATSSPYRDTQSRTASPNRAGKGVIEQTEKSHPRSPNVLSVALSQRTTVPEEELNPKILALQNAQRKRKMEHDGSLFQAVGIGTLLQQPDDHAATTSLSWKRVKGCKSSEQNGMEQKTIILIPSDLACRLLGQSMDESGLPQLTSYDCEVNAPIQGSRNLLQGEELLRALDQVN

T1: Estrogen-related receptor alpha (UniProt P11474)
T1 sequence: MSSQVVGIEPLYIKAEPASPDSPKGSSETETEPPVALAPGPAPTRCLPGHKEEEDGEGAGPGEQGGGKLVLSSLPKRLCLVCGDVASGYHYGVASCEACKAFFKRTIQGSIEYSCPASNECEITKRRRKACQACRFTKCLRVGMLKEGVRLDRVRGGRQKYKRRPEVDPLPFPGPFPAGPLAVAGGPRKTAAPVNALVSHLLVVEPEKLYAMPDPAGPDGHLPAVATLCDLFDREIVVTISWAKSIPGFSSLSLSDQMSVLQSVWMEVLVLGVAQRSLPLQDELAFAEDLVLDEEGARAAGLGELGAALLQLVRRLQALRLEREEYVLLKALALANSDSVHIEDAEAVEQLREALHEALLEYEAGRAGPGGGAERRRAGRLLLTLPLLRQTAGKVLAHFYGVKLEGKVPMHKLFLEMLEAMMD


How the values were obtained:
[1] = molecular target: T1, Estrogen-related receptor alpha; experiment: co-IP; HEC-1A-ovERRα cell lysate in IP buffer with protease inhibitor; incubated overnight with ERRα antibody (sc-65720), HIF-1α antibody (20960-1-AP) or control IgG; protein A agarose beads 2-4 h; SDS-PAGE and WB
[2] = molecular target: Hypoxia-inducible factor-1 alpha (human (endogenous in HEC-1A)) (UniProt Q16665); experiment: as above

| Molecule | binding [1] | binding [2] |
| --- | --- | --- |
| Hypoxia-inducible factor-1 alpha (from UniProt Q16665 1-826) | binds |  |
| Estrogen-related receptor alpha (protein, UniProt P11474 1-423) MSSQVVGIEPLYIKAEPASPDSPKGSSETETEPPVALAPGPAPTRCLPGHKEEEDGEGAGPGEQGGGKLVLSSLPKRLCLVCGDVASGYHYGVASCEACKAFFKRTIQGSIEYSCPASNECEITKRRRKACQACRFTKCLRVGMLKEGVRLDRVRGGRQKYKRRPEVDPLPFPGPFPAGPLAVAGGPRKTAAPVNALVSHLLVVEPEKLYAMPDPAGPDGHLPAVATLCDLFDREIVVTISWAKSIPGFSSLSLSDQMSVLQSVWMEVLVLGVAQRSLPLQDELAFAEDLVLDEEGARAAGLGELGAALLQLVRRLQALRLEREEYVLLKALALANSDSVHIEDAEAVEQLREALHEALLEYEAGRAGPGGGAERRRAGRLLLTLPLLRQTAGKVLAHFYGVKLEGKVPMHKLFLEMLEAMMD |  | binds |
